Test results reported in publication PMC5886150.
These are yes or no findings as the source states them, for the method shown. In cells and extracts the contact can be indirect. A yes stands for co-enrichment or nearness to the bait. Other partners may have been found.

Chains of the proteins cited; added tags and fusions are not shown. Residues count along the entry.
UniProt P04406: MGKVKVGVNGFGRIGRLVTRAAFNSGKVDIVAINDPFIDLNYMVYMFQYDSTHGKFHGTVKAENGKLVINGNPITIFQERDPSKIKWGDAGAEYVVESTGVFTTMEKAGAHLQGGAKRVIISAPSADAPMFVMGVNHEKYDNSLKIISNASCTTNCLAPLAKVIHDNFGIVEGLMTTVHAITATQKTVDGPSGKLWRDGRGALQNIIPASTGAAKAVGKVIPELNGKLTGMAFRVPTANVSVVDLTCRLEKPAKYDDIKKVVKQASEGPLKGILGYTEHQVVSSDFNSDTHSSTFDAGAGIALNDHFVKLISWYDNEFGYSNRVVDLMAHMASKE
UniProt P10809, residues 27-573: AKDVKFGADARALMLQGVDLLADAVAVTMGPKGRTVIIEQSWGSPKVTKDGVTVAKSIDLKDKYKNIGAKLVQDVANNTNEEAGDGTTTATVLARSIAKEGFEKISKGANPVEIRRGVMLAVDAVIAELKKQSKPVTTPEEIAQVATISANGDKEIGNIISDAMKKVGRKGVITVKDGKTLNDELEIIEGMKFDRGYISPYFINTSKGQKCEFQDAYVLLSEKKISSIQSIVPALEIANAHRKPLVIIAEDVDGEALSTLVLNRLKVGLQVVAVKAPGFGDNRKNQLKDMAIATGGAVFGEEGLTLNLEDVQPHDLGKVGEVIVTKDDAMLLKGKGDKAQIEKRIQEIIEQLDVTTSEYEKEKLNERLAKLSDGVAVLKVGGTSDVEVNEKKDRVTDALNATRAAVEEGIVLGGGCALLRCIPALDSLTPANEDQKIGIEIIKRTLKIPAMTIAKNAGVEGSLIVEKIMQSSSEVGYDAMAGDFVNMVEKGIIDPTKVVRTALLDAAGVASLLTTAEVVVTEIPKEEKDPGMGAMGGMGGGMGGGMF
UniProt P00441: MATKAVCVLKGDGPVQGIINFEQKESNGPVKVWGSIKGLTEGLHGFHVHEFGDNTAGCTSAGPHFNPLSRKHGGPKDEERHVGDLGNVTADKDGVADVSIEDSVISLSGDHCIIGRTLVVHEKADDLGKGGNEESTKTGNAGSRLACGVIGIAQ
UniProt Q32P51: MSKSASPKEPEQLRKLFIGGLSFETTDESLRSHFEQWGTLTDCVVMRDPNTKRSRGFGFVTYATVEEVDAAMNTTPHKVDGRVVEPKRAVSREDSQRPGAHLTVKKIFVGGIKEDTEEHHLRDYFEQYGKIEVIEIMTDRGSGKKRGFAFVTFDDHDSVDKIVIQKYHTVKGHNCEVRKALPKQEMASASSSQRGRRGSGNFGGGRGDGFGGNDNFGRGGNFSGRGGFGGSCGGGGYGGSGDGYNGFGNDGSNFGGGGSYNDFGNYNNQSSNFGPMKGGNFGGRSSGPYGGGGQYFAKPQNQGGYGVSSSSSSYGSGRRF
UniProt P11142: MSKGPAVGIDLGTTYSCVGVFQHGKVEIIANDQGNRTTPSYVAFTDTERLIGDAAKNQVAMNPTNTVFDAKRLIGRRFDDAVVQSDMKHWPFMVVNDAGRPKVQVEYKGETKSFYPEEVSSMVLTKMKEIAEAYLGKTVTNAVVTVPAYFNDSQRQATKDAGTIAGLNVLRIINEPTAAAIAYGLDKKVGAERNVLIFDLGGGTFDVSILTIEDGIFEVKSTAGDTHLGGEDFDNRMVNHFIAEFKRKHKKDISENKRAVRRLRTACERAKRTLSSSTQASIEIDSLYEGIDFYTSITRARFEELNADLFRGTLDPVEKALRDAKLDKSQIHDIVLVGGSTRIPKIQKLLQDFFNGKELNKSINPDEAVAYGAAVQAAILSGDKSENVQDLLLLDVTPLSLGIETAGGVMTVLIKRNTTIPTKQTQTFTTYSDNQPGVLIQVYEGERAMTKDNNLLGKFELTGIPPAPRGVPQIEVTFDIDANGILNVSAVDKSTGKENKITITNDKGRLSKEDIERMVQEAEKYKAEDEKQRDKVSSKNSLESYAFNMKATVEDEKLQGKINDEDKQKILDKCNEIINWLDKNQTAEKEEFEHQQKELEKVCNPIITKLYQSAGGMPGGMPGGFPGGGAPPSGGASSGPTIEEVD
UniProt P11940: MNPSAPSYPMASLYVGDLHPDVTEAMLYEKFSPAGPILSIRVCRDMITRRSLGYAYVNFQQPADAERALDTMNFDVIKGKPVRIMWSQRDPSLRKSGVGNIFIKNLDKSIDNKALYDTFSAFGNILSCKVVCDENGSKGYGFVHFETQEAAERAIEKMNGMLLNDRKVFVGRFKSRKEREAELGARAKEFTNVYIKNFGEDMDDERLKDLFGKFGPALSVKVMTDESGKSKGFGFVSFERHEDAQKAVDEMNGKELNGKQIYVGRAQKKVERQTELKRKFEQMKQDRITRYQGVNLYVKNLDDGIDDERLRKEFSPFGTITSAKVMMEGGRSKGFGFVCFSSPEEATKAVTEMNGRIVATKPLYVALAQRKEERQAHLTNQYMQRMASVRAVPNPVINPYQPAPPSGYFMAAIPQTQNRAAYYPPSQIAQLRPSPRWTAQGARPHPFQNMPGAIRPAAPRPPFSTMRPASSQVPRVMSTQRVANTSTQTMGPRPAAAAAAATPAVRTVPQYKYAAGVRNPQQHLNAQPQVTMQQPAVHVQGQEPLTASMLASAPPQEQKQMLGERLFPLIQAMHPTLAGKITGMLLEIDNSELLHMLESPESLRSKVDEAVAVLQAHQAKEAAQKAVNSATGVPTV
UniProt Q5VTE0: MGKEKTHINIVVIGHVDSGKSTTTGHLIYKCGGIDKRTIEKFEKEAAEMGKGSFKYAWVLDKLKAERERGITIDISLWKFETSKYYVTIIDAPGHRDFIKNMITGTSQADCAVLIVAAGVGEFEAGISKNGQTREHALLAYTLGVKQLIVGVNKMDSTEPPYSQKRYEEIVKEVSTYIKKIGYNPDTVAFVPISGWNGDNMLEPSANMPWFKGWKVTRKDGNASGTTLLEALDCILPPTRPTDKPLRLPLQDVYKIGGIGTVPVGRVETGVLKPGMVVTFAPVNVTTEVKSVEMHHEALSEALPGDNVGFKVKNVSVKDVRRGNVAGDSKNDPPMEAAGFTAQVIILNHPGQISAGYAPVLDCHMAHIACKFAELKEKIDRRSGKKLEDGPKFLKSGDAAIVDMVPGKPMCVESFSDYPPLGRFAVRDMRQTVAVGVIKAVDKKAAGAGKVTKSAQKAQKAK

Experiments:
[1] = target: DJ-1 (endogenous, SH-SY5Y cells) (human (endogenous in SH-SY5Y)) (UniProt Q99497); assay: affinity purification with mass spectrometry; polyclonal goat anti DJ-1 antibody covalently linked to Dynabeads M-270 Epoxy; SH-SY5Y lysate (1% NP40, 150 mM sodium chloride, pH 7.5) concentrated on 100 K filters to remove proteins less than 100 kDa; 1 h at 4 °C; label-free quantitative LC-MS/MS
DJ-1 C106A = DJ-1 C106A (UniProt Q99497); assay: affinity purification with mass spectrometry; DJ-1 HMW complexes from KD1 cells expressing DJ-1 C106A or DJ-1 C106DD, compared by the same LC-MS/MS technique (fold change C106DD/C106A)
DJ-1 C106DD = DJ-1 C106DD (UniProt Q99497); assay: as above

Row | Molecule | binding [1] | binding (DJ-1 C106A) | binding (DJ-1 C106DD)
1 | Glyceraldehyde 3-phosphate dehydrogenase (from UniProt P04406 1-335) | binds | binds | binds
2 | Hsp60 (from UniProt P10809 27-573) | binds |  | 
3 | SOD1 (from UniProt P00441 1-154) | binds |  | 
4 | heterogeneous ribonucleoprotein A1 like 2 (from UniProt Q32P51 1-320) |  | binds | binds
5 | hnRNP K (from UniProt P61978 1-463) |  | binds | binds
6 | hsc70 (from UniProt P11142 1-646) |  | binds | binds
7 | polyadenylate-binding protein 1 (from UniProt P11940 1-636) |  | binds | binds
8 | putative elongation factor 1 alpha like 3 (from UniProt Q5VTE0 1-462) | binds |  | 
9 | hnRNP A0 (protein, UniProt Q13151 1-305) MENSQLCKLFIGGLNVQTSESGLRGHFEAFGTLTDCVVVVNPQTKRSRCFGFVTYSNVEEADAAMAASPHAVDGNTVELKRAVSREDSARPGAHAKVKKLFVGGLKGDVAEGDLIEHFSQFGTVEKAEIIADKQSGKKRGFGFVYFQNHDAADKAAVVKFHPIQGHRVEVKKAVPKEDIYSGGGGGGSRSSRGGRGGRGRGGGRDQNGLSKGGGGGYNSYGGYGGGGGGGYNAYGGGGGGSSYGGSDYGNGFGGFGSYSQHQSSYGPMKSGGGGGGGGSSWGGRSNSGPYRGGYGGGGGYGGSSF |  | binds | binds
10 | hnRNP L (protein, UniProt P14866 1-589) MSRRLLPRAEKRRRRLEQRQQPDEQRRRSGAMVKMAAAGGGGGGGRYYGGGSEGGRAPKRLKTDNAGDQHGGGGGGGGGAGAAGGGGGGENYDDPHKTPASPVVHIRGLIDGVVEADLVEALQEFGPISYVVVMPKKRQALVEFEDVLGACNAVNYAADNQIYIAGHPAFVNYSTSQKISRPGDSDDSRSVNSVLLFTILNPIYSITTDVLYTICNPCGPVQRIVIFRKNGVQAMVEFDSVQSAQRAKASLNGADIYSGCCTLKIEYAKPTRLNVFKNDQDTWDYTNPNLSGQGDPGSNPNKRQRQPPLLGDHPAEYGGPHGGYHSHYHDEGYGPPPPHYEGRRMGPPVGGHRRGPSRYGPQYGHPPPPPPPPEYGPHADSPVLMVYGLDQSKMNCDRVFNVFCLYGNVEKVKFMKSKPGAAMVEMADGYAVDRAITHLNNNFMFGQKLNVCVSKQPAIMPGQSYGLEDGSCSYKDFSESRNNRFSTPEQAAKNRIQHPSNVLHFFNAPLEVTEENFFEICDELGVKRPSSVKVFSGKSERSSSGLLEWESKSDALETLGFLNHYQMKNPNGPYPYTLKLCFSTAQHAS |  | binds | binds
11 | hnRNP M (protein, UniProt P52272 1-730) MAAGVEAAAEVAATEIKMEEESGAPGVPSGNGAPGPKGEGERPAQNEKRKEKNIKRGGNRFEPYANPTKRYRAFITNIPFDVKWQSLKDLVKEKVGEVTYVELLMDAEGKSRGCAVVEFKMEESMKKAAEVLNKHSLSGRPLKVKEDPDGEHARRAMQKVMATTGGMGMGPGGPGMITIPPSILNNPNIPNEIIHALQAGRLGSTVFVANLDYKVGWKKLKEVFSMAGVVVRADILEDKDGKSRGIGTVTFEQSIEAVQAISMFNGQLLFDRPMHVKMDERALPKGDFFPPERPQQLPHGLGGIGMGLGPGGQPIDANHLNKGIGMGNIGPAGMGMEGIGFGINKMGGMEGPFGGGMENMGRFGSGMNMGRINEILSNALKRGEIIAKQGGGGGGGSVPGIERMGPGIDRLGGAGMERMGAGLGHGMDRVGSEIERMGLVMDRMGSVERMGSGIERMGPLGLDHMASSIERMGQTMERIGSGVERMGAGMGFGLERMAAPIDRVGQTIERMGSGVERMGPAIERMGLSMERMVPAGMGAGLERMGPVMDRMATGLERMGANNLERMGLERMGANSLERMGLERMGANSLERMGPAMGPALGAGIERMGLAMGGGGGASFDRAIEMERGNFGGSFAGSFGGAGGHAPGVARKACQIFVRNLPFDFTWKMLKDKFNECGHVLYADIKMENGKSKGCGVVKFESPEVAERACRMMNGMKLSGREIDVRIDRNA |  | binds | binds
12 | hnRNP R (protein, UniProt O43390 1-633) MANQVNGNAVQLKEEEEPMDTSSVTHTEHYKTLIEAGLPQKVAERLDEIFQTGLVAYVDLDERAIDALREFNEEGALSVLQQFKESDLSHVQNKSAFLCGVMKTYRQREKQGSKVQESTKGPDEAKIKALLERTGYTLDVTTGQRKYGGPPPDSVYSGVQPGIGTEVFVGKIPRDLYEDELVPLFEKAGPIWDLRLMMDPLSGQNRGYAFITFCGKEAAQEAVKLCDSYEIRPGKHLGVCISVANNRLFVGSIPKNKTKENILEEFSKVTEGLVDVILYHQPDDKKKNRGFCFLEYEDHKSAAQARRRLMSGKVKVWGNVVTVEWADPVEEPDPEVMAKVKVLFVRNLATTVTEEILEKSFSEFGKLERVKKLKDYAFVHFEDRGAAVKAMDEMNGKEIEGEEIEIVLAKPPDKKRKERQAARQASRSTAYEDYYYHPPPRMPPPIRGRGRGGGRGGYGYPPDYYGYEDYYDDYYGYDYHDYRGGYEDPYYGYDDGYAVRGRGGGRGGRGAPPPPRGRGAPPPRGRAGYSQRGAPLGPPRGSRGGRGGPAQQQRGRGSRGSRGNRGGNVGGKRKADGYNQPDSKRRQTNNQQNWGSQPIAQQPLQQGGDYSGNYGYNNDNQEFYQDTYGQQWK |  | binds | binds
13 | splicing regulatory glutamine lysine rich protein 1 (protein, UniProt Q8WXA9 1-508) MTSLMPGAGLLPIPTPNPLTTLGVSLSSLGAIPAAALDPNIATLGEIPQPPLMGNVDPSKIDEIRRTVYVGNLNSQTTTADQLLEFFKQVGEVKFVRMAGDETQPTRFAFVEFADQNSVPRALAFNGVMFGDRPLKINHSNNAIVKPPEMTPQAAAKELEEVMKRVREAQSFISAAIEPESGKSNERKGGRSRSHTRSKSRSSSKSHSRRKRSQSKHRSRSHNRSRSRQKDRRRSKSPHKKRSKSRERRKSRSRSHSRDKRKDTREKIKEKERVKEKDREKEREREKEREKEKERGKNKDRDKEREKDREKDKEKDREREREKEHEKDRDKEKEKEQDKEKEREKDRSKEIDEKRKKDKKSRTPPRSYNASRRSRSSSRERRRRRSRSSSRSPRTSKTIKRKSSRSPSPRSRNKKDKKREKERDHISERRERERSTSMRKSSNDRDGKEKLEKNSTSLKEKEHNKEPDSSVSKEVDDKDAPRTEENKIQHNGNCQLNEENLSTKTEAV | binds |  | 
